According to patent US20060051395A1 (AFFINERGY, published 2006):
Results are given in words; binding and its absence hold for the method and conditions named. Some results given as binding are weak or reduced against the parent protein; the word gives no strength. One block for each binder: values may come before it.

Experiments:
[1] = target: T1, Bone Morphogenic Protein 2 (BMP-2) (UniProt P12643); assay: phage ELISA on BMP-2, A405 against microliters of phage; order of signal at 0.10 microliters of phage (7th of 9 lines, just above mAEK vector)
T1 sequence (looked up): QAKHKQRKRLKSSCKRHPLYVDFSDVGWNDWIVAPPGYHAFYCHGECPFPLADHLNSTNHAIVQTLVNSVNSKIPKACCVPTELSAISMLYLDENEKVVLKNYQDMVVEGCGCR

[2] = target: T1, Bone Morphogenic Protein 2 (BMP-2); assay: phage ELISA on biotinylated BMP-2 on streptavidin plates, anti-M13-HRP
[3] = target: T1, Bone Morphogenic Protein 2 (BMP-2); assay: phage ELISA on BMP-2
[4] = target: T1, Bone Morphogenic Protein 2 (BMP-2); assay: solution-phase binding assay, A405 against picomoles of BMP; order of signal (6th of 6 lines)
[5] = target: T1, Bone Morphogenic Protein 2 (BMP-2); assay: solution-phase binding assay, A405 against picomoles of BMP; order of signal (4th of 6 lines)
[6] = target: T1, Bone Morphogenic Protein 2 (BMP-2); assay: phage ELISA on BMP-2, A405 against microliters of phage; order of signal at 0.10 microliters of phage (5th of 9 lines)
[7] = target: T1, Bone Morphogenic Protein 2 (BMP-2); assay: phage ELISA on BMP-2, A405 against microliters of phage; order of signal at 0.10 microliters of phage (6th of 9 lines)

binding [1]: binds
binding [2]: binds
Binder: SSGGIASLKYDVVKTWESR [AP02-44]

binding [3]: no binding
Binder: SSADRVAWPLKGAPVWVKESR [AP02-37]

binding [7]: binds
binding [2]: binds
Binder: SSSVDLYFPLKGDVVSR [AP02-59]

More lines, now with the values behind:

Binder: SSSVDLYFPLKGDVVSR (biotin on the epsilon amino group of a lysine residue at the C-terminus) [AFF-2012]
binding [4]: binds

Binder: SSFEPLRFPLKGVPVSR (biotin on the epsilon amino group of a lysine residue at the C-terminus) [AFF-2009]
binding [5]: binds

Binder: SSSNSLWFPLRGSTVEVGASR [AP02-35]
binding [6]: binds
binding [2]: binds
